PubChem BioAssay AID504791 | Drosophila RNAi Screening Center – 2011

Assay: 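Genes of the fly required for silencing by miRNA, siRNA or endo-siRNA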 (primary screen)
Cells: Drosophila S2-derived reporter cells
Reagent: long dsRNA against Drosophila genes, about 150-250 ng dsRNA per well (siRNA assay); about 80-120 ng (miRNA assay)
Duration: about 5 days (siRNA assay); about 4 days (miRNA assay)
Conditions: copper sulfate induction of reporters: 25 µM (siRNA assay); 200 mM stated (miRNA assay), 1-2 days before reading
Measurement: 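Per-well ratio of Renilla over firefly light, expressed relative to that plate's average ratio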
Units: stable assay Renilla, run 1 in luminescence; stable assay firefly, run 1 in luminescence
Active means: 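a well was a first-pass pick when its plate-scaled ratio rose above 1.5 (siRNA assay) or 1.6 (miRNA assay), or dropped below 0.6; a gene counted only if two separate dsRNAs agreed on retest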
In all, the deposit lists about 23,000 reagents; below is a random part of those with a known target gene and a result. Of all reagents, 199 (0.86%) are marked active. 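Plate-scaled ratios behind the calls are not deposited; printed light signals are raw; many rows marked increased or decreased are still called inactive.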 A plus sign joins genes that one reagent is predicted to hit. Reagent sequences are not shown. Not stated in the record: the direction of the score.

Target gene	DRSC id	stable siRNA reporter change	miRNA reporter change	stable assay Renilla, run 1	stable assay firefly, run 1	outcome
Dp1 (Dodeca-satellite-binding protein 1)	DRSC07403			9982	4.17e5	inactive
CG10650	DRSC02085			6554	1.75e6	inactive
CG34234 + Dh44-R2	DRSC07278			7938	4.55e5	inactive
Pex11c (Peroxin 11c)	DRSC14677			6939	3.47e5	inactive
CG44085	DRSC02922	reporter ratio raised past the hit cutoff		6235	1.92e5	inactive
CG44085	DRSC23040			6699	3.98e5	inactive
CG14537	DRSC02395			6538	3.35e5	inactive
Doc3 (Dorsocross3)	DRSC10480			6575	3.92e5	inactive
NitFhit (Nitrilase and fragile histidine triad fusion protein)	DRSC08680			5799	3.17e5	inactive
CG8260	DRSC20098			5396	4.44e5	inactive
Pp2C1 (Protein phosphatase 2C)	DRSC18699			7563	5.75e5	inactive
Pp2C1 (Protein phosphatase 2C)	DRSC23287			3379	2.91e5	inactive
CG9400	DRSC20182			8707	4.10e5	inactive
CG8236	DRSC16399			7663	5.60e5	inactive
CG30151	DRSC05888			6450	4.76e5	inactive
nAChRalpha3 (nicotinic Acetylcholine Receptor alpha3)	DRSC18800			5884	2.81e5	inactive
CG6769	DRSC20006			7766	4.90e5	inactive
CG13551	DRSC21847			9191	7.20e5	inactive
CG7985	DRSC14128			6835	3.00e5	inactive
Cap-D3 (Chromosome associated protein D3)	DRSC02349			7570	4.79e5	inactive
CG14104	DRSC10106			8136	4.65e5	inactive
Ir62a (Ionotropic receptor 62a)	DRSC08250			7207	3.29e5	inactive
Sod3 (Superoxide dismutase 3)	DRSC07324			6959	3.71e5	inactive
Cln3	DRSC10520			7825	3.85e5	inactive
CG33308	DRSC01419			5091	3.19e5	inactive
CG5973	DRSC02918			1.82e5	1.40e5	inactive
CG5023	DRSC15697			5967	3.62e5	inactive
alpha-Man-IIb (alpha-Mannosidase class II b)	DRSC16898			9132	4.17e5	inactive
GstE6 (Glutathione S transferase E6)	DRSC06676			5084	2.47e5	inactive
CG17375	DRSC02614			7830	4.68e5	inactive
SP1173	DRSC11277			7787	4.38e5	inactive
CkIalpha (Casein kinase Ialpha)	DRSC20231		reporter ratio raised past the hit cutoff	4179	4.84e5	inactive
CkIalpha (Casein kinase Ialpha)	DRSC22609		reporter ratio raised past the hit cutoff	3140	3.75e5	inactive
CkIalpha (Casein kinase Ialpha)	DRSC23308			2992	3.09e5	inactive
CkIalpha (Casein kinase Ialpha)	DRSC25564		reporter ratio raised past the hit cutoff			inactive

5 entries from above, sorted by “stable assay Renilla, run 1”, descending:
Target gene	DRSC id	stable siRNA reporter change	miRNA reporter change	stable assay Renilla, run 1	stable assay firefly, run 1	outcome
Pp2C1 (Protein phosphatase 2C)	DRSC18699			7563	5.75e5	inactive
Doc3 (Dorsocross3)	DRSC10480			6575	3.92e5	inactive
CG14537	DRSC02395			6538	3.35e5	inactive
NitFhit (Nitrilase and fragile histidine triad fusion protein)	DRSC08680			5799	3.17e5	inactive
CG8260	DRSC20098			5396	4.44e5	inactive
